Experimental data: paper PMC3575409, “Identification of a Novel Protein-Protein Interaction Motif Mediating Interaction of GPCR-Associated Sorting Proteins with G Protein-Coupled Receptors” (PLoS ONE, 2013)
These are yes or no findings as the source states them, for the method shown. In cells and extracts the contact can be indirect. Some entries that bind do so weakly or less than the wild type.

The chains behind the UniProt entries cited, without tags or fusion partners. Residues count along the entry.
UniProt P34972, residues 295-360: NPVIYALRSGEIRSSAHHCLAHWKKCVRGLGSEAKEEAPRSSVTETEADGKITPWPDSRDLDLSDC
UniProt P11229: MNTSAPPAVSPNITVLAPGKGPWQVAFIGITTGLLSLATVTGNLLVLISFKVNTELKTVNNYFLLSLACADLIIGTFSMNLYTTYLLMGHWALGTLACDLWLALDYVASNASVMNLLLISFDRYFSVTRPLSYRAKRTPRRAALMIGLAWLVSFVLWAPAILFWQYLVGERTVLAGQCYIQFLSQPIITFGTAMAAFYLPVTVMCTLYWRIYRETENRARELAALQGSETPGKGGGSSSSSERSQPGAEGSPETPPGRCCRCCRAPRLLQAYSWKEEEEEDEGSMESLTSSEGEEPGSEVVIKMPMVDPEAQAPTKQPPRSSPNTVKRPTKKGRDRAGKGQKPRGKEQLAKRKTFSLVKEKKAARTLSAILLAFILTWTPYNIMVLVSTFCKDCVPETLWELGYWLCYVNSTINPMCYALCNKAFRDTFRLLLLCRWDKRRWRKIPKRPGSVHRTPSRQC
UniProt P08588: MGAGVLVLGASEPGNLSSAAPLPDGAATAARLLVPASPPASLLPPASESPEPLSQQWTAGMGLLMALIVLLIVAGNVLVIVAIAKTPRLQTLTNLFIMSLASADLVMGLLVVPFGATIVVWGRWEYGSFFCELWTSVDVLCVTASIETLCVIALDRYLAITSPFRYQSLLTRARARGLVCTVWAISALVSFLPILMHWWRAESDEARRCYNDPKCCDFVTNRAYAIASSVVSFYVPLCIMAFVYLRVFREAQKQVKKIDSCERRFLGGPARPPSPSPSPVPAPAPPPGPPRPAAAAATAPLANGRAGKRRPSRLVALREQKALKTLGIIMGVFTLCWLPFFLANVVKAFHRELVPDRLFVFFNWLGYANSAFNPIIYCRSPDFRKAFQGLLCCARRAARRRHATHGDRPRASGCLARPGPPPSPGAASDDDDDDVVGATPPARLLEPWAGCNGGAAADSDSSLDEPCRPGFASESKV

Experiments:
[1] = biological target: GST-fused C-tail of the cannabinoid type 2 receptor (residues 295–360) (human) (UniProt P34972); experiment: pull-down; GST-fused receptor C-tails immobilized on glutathione-Sepharose beads, incubated with [35S]-labelled in vitro translated GASPs 1 h at 4°C; 20 mM Tris-HCl pH 7.4, 150 mM NaCl, 1 mM EDTA, 1 mM DTT, 10% glycerol, 1% Triton X-100; Phosphor-imager quantification; only the target purified
[2] = biological target: N-terminal GFP-tagged M1 receptor (UniProt P11229); experiment: co-IP; lysates of HEK293 cells stably expressing GFP-tagged receptors or MyrPalm-mYFP and transfected with the central domain of GASP-1; anti-GFP antibody and protein A-Sepharose; blot with anti-GASP serum; 0.3% Triton X-100
[3] = biological target: N-terminal GFP-tagged ADRB1 (UniProt P08588); experiment: as above
[4] = biological target: N-terminal GFP-tagged ADRB2 (UniProt P07550); experiment: as above
[5] = biological target: GST-fused C-tail of the β2 adrenergic receptor (residues 322–413) (human) (UniProt P07550); experiment: pull-down; GST-fused receptor C-tails immobilized on glutathione-Sepharose beads, incubated with [35S]-labelled in vitro translated GASPs 1 h at 4°C; 20 mM Tris-HCl pH 7.4, 150 mM NaCl, 1 mM EDTA, 1 mM DTT, 10% glycerol, 1% Triton X-100; Phosphor-imager quantification; only the target purified

binding [1]	binding [2]	binding [3]	binding [4]	binding [5]	Binder
binds					GASP-1 truncated mutant 380–1073 (central domain), in vitro translated (domain or fragment, UniProt Q5JY77 380-1073, [35S]-methionine labelled) MTKEEAKTKARARAKQEARSEEEALIGTWFWATDESSMADEASIESSLQVEDESIIGSWFWTEEEASMGTGASSKSRPRTDGERIGDSLFGAREKTSMKTGAEATSESILAADDEQVIIGSWFWAGEEVNQEAEEETIFGSWFWVIDAASVESGVGVSCESRTRSEEEEVIGPWFWSGEQVDIEAGIGEEARPGAEEETIFGSWFWAENQTYMDCRAETSCDTMQGAEEEEPIIGSWFWTRVEACVEGDVNSKSSLEDKEEAMIPCFGAKEEVSMKHGTGVRCRFMAGAEETNNKSCFWAEKEPCMYPAGGGSWKSRPEEEEDIVNSWFWSRKYTKPEAIIGSWLWATEESNIDGTGEKAKLLTEEETIINSWFWKEDEAISEATDREESRPEAEEGDIIGSWFWAGEEDRLEPAAETREEDRLAAEKEGIVGSWFGAREETIRREAGSCSKSSPKAEEEEVIIGSWFWEEEASPEAVAGVGFESKPGTEEEEITVGSWFWPEEEASIQAGSQAVEEMESETEEETIFGSWFWDGKEVSEEAGPCCVSKPEDDEEMIVESWFWSRDKAIKETGTVATCESKPENEEGAIVGSWFEAEDEVDNRTDNGSNCGSRTLADEDEAIVGSWFWAGDEAHFESNPSPVFRAICRSTCSVEQEPDPSRRPQSWEEVTVQFKPGPWGRVGFPSISPFRFPKE
	binds	binds	binds		central domain of GASP-1 (AA 380 to 1073) expressed in HEK293 cells (domain or fragment, UniProt Q5JY77 380-1073) MTKEEAKTKARARAKQEARSEEEALIGTWFWATDESSMADEASIESSLQVEDESIIGSWFWTEEEASMGTGASSKSRPRTDGERIGDSLFGAREKTSMKTGAEATSESILAADDEQVIIGSWFWAGEEVNQEAEEETIFGSWFWVIDAASVESGVGVSCESRTRSEEEEVIGPWFWSGEQVDIEAGIGEEARPGAEEETIFGSWFWAENQTYMDCRAETSCDTMQGAEEEEPIIGSWFWTRVEACVEGDVNSKSSLEDKEEAMIPCFGAKEEVSMKHGTGVRCRFMAGAEETNNKSCFWAEKEPCMYPAGGGSWKSRPEEEEDIVNSWFWSRKYTKPEAIIGSWLWATEESNIDGTGEKAKLLTEEETIINSWFWKEDEAISEATDREESRPEAEEGDIIGSWFWAGEEDRLEPAAETREEDRLAAEKEGIVGSWFGAREETIRREAGSCSKSSPKAEEEEVIIGSWFWEEEASPEAVAGVGFESKPGTEEEEITVGSWFWPEEEASIQAGSQAVEEMESETEEETIFGSWFWDGKEVSEEAGPCCVSKPEDDEEMIVESWFWSRDKAIKETGTVATCESKPENEEGAIVGSWFEAEDEVDNRTDNGSNCGSRTLADEDEAIVGSWFWAGDEAHFESNPSPVFRAICRSTCSVEQEPDPSRRPQSWEEVTVQFKPGPWGRVGFPSISPFRFPKE
binds				binds	GPCR-associated sorting protein 1 (GASP-1), full-length (protein, UniProt Q5JY77 1-1395, [35S]-methionine labelled) MTGAEIESGAQVKPEKKPGEEVVGGAEIENDVPLVVRPKVRTQAQIMPGARPKNKSKVMPGASTKVETSAVGGARPKSKAKAIPVSRFKEEAQMWAQPRFGAERLSKTERNSQTNIIASPLVSTDSVLVAKTKYLSEDRELVNTDTESFPRRKAHYQAGFQPSFRSKEETNMGSWCCPRPTSKQEASPNSDFKWVDKSVSSLFWSGDEVTAKFHPGNRVKDSNRSMHMANQEANTMSRSQTNQELYIASSSGSEDESVKTPWFWARDKTNTWSGPREDPNSRSRFRSKKEVYVESSSGSEHEDHLESWFGAGKEAKFRSKMRAGKEANNRARHRAKREACIDFMPGSIDVIKKESCFWPEENANTFSRPMIKKEARARAMTKEEAKTKARARAKQEARSEEEALIGTWFWATDESSMADEASIESSLQVEDESIIGSWFWTEEEASMGTGASSKSRPRTDGERIGDSLFGAREKTSMKTGAEATSESILAADDEQVIIGSWFWAGEEVNQEAEEETIFGSWFWVIDAASVESGVGVSCESRTRSEEEEVIGPWFWSGEQVDIEAGIGEEARPGAEEETIFGSWFWAENQTYMDCRAETSCDTMQGAEEEEPIIGSWFWTRVEACVEGDVNSKSSLEDKEEAMIPCFGAKEEVSMKHGTGVRCRFMAGAEETNNKSCFWAEKEPCMYPAGGGSWKSRPEEEEDIVNSWFWSRKYTKPEAIIGSWLWATEESNIDGTGEKAKLLTEEETIINSWFWKEDEAISEATDREESRPEAEEGDIIGSWFWAGEEDRLEPAAETREEDRLAAEKEGIVGSWFGAREETIRREAGSCSKSSPKAEEEEVIIGSWFWEEEASPEAVAGVGFESKPGTEEEEITVGSWFWPEEEASIQAGSQAVEEMESETEEETIFGSWFWDGKEVSEEAGPCCVSKPEDDEEMIVESWFWSRDKAIKETGTVATCESKPENEEGAIVGSWFEAEDEVDNRTDNGSNCGSRTLADEDEAIVGSWFWAGDEAHFESNPSPVFRAICRSTCSVEQEPDPSRRPQSWEEVTVQFKPGPWGRVGFPSISPFRFPKEAASLFCEMFGGKPRNMVLSPEGEDQESLLQPDQPSPEFPFQYDPSYRSVQEIREHLRAKESTEPESSSCNCIQCELKIGSEEFEELLLLMEKIRDPFIHEISKIAMGMRSASQFTRDFIRDSGVVSLIETLLNYPSSRVRTSFLENMIRMAPPYPNLNIIQTYICKVCEETLAYSVDSPEQLSGIRMIRHLTTTTDYHTLVANYMSGFLSLLATGNAKTRFHVLKMLLNLSENLFMTKELLSAEAVSEFIGLFNREETNDNIQIVLAIFENIGNNIKKETVFSDDDFNIEPLISAFHKVEKFAKELQGKTDNQNDPEGDQEN
